Results published in paper PMC12040169 (PLOS Biology, 2025).
This is one part of the list.

tested on: T1, CTL2-GFP (C. trachomatis L2/434/Bu, GFP-expressing); set-up: species or system HeLa; Intracellular C. trachomatis growth in HeLa cells, bulk GFP fluorescence relative to DMSO; settings: bulk GFP, single well; 28.5 h, 10 µM; inhibitor
T1 construct: L2/434/Bu, GFP-expressing

Compound | % of control remaining [%]
Cc1nc(O)cc(C2CCCN(C(=O)c3scc4c3CCCC4)C2)n1 (stereo not drawn) [CBK306969] | 152.388
CC(=O)N1CCc2sccc2C1c1ccc(NC(=O)C2CC2)cc1 (stereo not drawn) [CBK282907] | 106.602
O=C(NC1CC1)[C@H]1CN2CCC1C[C@@H]2Cn1cc(-c2cccc(O)c2)nn1 (stereo partly drawn) [CBK288738] | 158.767
CCOC(=O)N1CCN(C(=O)c2oc3ccccc3c2C)CC1 [CBK023696] | 126.864
CCCC1CCN(CC2C=Cc3cc(-c4ccc(S(C)(=O)=O)cc4)ccc3O2)CC1 (stereo not drawn) [CBK158647] | 135.452
O=C(c1ccccc1)c1ccc(CNC(=O)C2(c3ccccc3)CCCC2)cc1 [CBK161526] | 85.5237
CC(C)Nc1nccnc1OCCN1CCOCC1 [CBK113410] | 140.592
COc1ccc2oc(C(=O)NC(C)(C)CN3CCCCC3)cc2c1 [CBK282053] | 140.756
COc1ccc(OCCCCCN2CCC3(CC2)OCCc2c3[nH]c3ccccc23)cc1 [CBK113517T] | 49.748
CC(C)(C)OC(=O)N1CCN(c2ccc(N)c3ccccc23)CC1 [CBK003162] | 97.2148
O=C(Cc1c[nH]c2ccccc12)N1CCCC1c1cccc(Cc2ccccc2F)n1 (stereo not drawn) [CBK285799] | 131.205
CC(C)CC1(C(CN2C(=O)c3ccccc3C2=O)C(=O)NO)CCN(CCc2ccccc2)C1=O (stereo not drawn) [CBK013029] | 112.187
CC(=O)Nc1ccc(-c2cc(Nc3cccc(N(C)C)c3)ncn2)cc1 [CBK091017] | 172.239
O=C(Nc1cccc(N2CCNCC2)c1)c1cnccn1 [CBK029470T] | 131.268
Cc1ccnn1CCNC(=O)CCc1ccc(Cl)cc1 [CBK283182] | 81.5453
COc1ccc(Br)cc1CN1CCN(Cc2cccc([N+](=O)[O-])c2)CC1 [CBK263347] | 100
O=C(CN1C(=O)CCC1=O)NCCc1ccccc1 [CBK262326] | 106.467
O=C(Oc1ccc(N(C(=O)c2ccncc2)S(=O)(=O)c2cccc3cccnc23)c2ccccc12)c1ccncc1 [CBK266915] | 99.6878
Cc1ccc(NC(=O)CCC(=O)N2CCC3(CC2)CC(=O)c2ccccc2O3)cc1 [CBK156524] | 99.7798
O=C(CN1C(=O)c2ccccc2C1=O)Nc1cccc(C(=O)O)c1 [CBK287040] | 106.74
COC(=O)c1cn([C@H]2CO[C@H]3[C@@H]2OC[C@@H]3NC(=O)C2CC2)nn1 [CBK289497] | 137.911
CN1CCN(S(=O)(=O)c2ccc(NC(=O)Cc3ccc([N+](=O)[O-])cc3)cc2)CC1 [CBK268161] | 90.4768
Cc1cc(NCC2CCCO2)n2ncc(-c3ccccc3)c2n1 (stereo not drawn) [CBK304530] | 120.322
CN(C(=O)NC1CCN(Cc2cccc(O)c2)CC1)C1CCS(=O)(=O)C1 (stereo not drawn) [CBK306538] | 128.206
COc1ccccc1N1CCN(C(=O)C2CC2C)CC1 (stereo not drawn) [CBK091496] | 178.56
COc1ccc(C(CC(=O)O)NC(=O)c2ccc(Cl)cc2Cl)cc1 (stereo not drawn) [CBK269131] | 139.566

Compound | % of control remaining [%]
O=C(Cn1cnc2ccccc2c1=O)Nc1cccc(-c2cnc3ccccc3n2)c1 [CBK270020] | 162.545
Cc1ccc(S(=O)(=O)Nc2ccc(Nc3nc(-c4ccccc4)cn4ccnc34)cc2)cc1 [CBK037303] | 162.174
CCCCn1nc(Cn2cncn2)nc1CC1NC(=O)c2ccccc21 (stereo not drawn) [CBK307395] | 85.3161
CN(Cc1ccccc1)S(=O)(=O)c1ccccc1[N+](=O)[O-] [CBK261458] | 100
Fc1ccc(C2CCc3n[nH]cc3C2)cc1 (stereo not drawn) [CBK015957C] | 160.84
Cc1ccc(Cn2ncc3c(C(=O)N4CCC(N(C)S(C)(=O)=O)CC4)cc(C)nc32)cc1 [CBK298280] | 106.471
O=C(COc1ccccc1Cl)Nc1nnc[nH]1 [CBK287946] | 139.981
O=[N+]([O-])c1ccc(/C=N/Nc2nnc3c(n2)[nH]c2ccccc23)cc1 [CBK261486] | 106.262
O=C(Nc1ccnn1Cc1cc(Br)cs1)c1ccc2ncsc2c1 [CBK296713] | 122.103
O=c1cc(-c2cccc([N+](=O)[O-])c2)c2ccc(OCc3cc4c(cc3Cl)OCO4)cc2o1 [CBK265652] | 95.2823
O=C(c1ccc(Br)o1)N1CCc2ccc(S(=O)(=O)N3CCOCC3)cc21 [CBK028953] | 98.506
NC(=O)CN1CCCC2(CCCCc3ccccc3OCC(=O)NC2)C1 (stereo not drawn) [CBK292058] | 99.7143
c1cncc(-c2nnc(SCc3nc4ccccc4[nH]3)o2)c1 [CBK264543] | 118.694
CN(C)CCN1CCN(c2nc(-c3cccnc3)cnc2N)CC1 [CBK063503] | 133.389
Cc1cnc2[nH]c(C(F)(F)F)c(CN3CCSCC3)c2c1 [CBK284767] | 159.072
O=C(CN1CCCCC1CN1CCOCC1)NCc1ccccn1 (stereo not drawn) [CBK304375] | 85.5307
NC1CCN(c2ncccn2)CC1 [CBK174054] | 91.6488
O=C(NC1CC1)[C@@H]1C=CCN1C(=O)Nc1ccccc1C(F)(F)F [CBK284276] | 77.9904
Nc1ncc(-c2cccc(O)c2)nc1N1CCOCC1 [CBK063376] | 113.034
c1csc(N2CCN(c3nccn4cnnc34)CC2)n1 [CBK305185] | 104.425
COc1ccc(C(=O)NCc2ccccc2)c(OC)n1 [CBK200190] | 104.575
Cc1ocnc1C(=O)Nc1nc2c(cc1C#N)CCC2 [CBK306365] | 82.4454
CCOC(=O)Cn1ccc2ccnc(-c3cccc(OC)c3)c21 [CBK284707] | 81.4295
Cc1[nH]nc(Nc2ccc(C(=O)O)cc2)c1[N+](=O)[O-] [CBK262726] | 125.172
COC(=O)c1cc(CN2CCCN(S(=O)(=O)c3ccc(-n4cnc(Cl)c4Cl)cc3)CC2)cn1C [CBK063080] | 110.685

A stretch from further up, as a working copy:
Compound | % of control remaining [%]
COc1ccccc1N1CCN(C(=O)C2CC2C)CC1 (stereo not drawn) [CBK091496] | 178.56
COc1ccc(C(CC(=O)O)NC(=O)c2ccc(Cl)cc2Cl)cc1 (stereo not drawn) [CBK269131] | 139.566
O=C(Cn1cnc2ccccc2c1=O)Nc1cccc(-c2cnc3ccccc3n2)c1 [CBK270020] | 162.545
Cc1ccc(S(=O)(=O)Nc2ccc(Nc3nc(-c4ccccc4)cn4ccnc34)cc2)cc1 [CBK037303] | 162.174
